Measured values reported in publication PMC5587320.
Results are given in words; binding and its absence hold for the method and conditions named. In cells and extracts the contact can be indirect. Some binding calls cover weakened binding; strength is not graded here.

Sequences of proteins named here, by UniProt entry; tags and fusion partners are left off.
UniProt P46934: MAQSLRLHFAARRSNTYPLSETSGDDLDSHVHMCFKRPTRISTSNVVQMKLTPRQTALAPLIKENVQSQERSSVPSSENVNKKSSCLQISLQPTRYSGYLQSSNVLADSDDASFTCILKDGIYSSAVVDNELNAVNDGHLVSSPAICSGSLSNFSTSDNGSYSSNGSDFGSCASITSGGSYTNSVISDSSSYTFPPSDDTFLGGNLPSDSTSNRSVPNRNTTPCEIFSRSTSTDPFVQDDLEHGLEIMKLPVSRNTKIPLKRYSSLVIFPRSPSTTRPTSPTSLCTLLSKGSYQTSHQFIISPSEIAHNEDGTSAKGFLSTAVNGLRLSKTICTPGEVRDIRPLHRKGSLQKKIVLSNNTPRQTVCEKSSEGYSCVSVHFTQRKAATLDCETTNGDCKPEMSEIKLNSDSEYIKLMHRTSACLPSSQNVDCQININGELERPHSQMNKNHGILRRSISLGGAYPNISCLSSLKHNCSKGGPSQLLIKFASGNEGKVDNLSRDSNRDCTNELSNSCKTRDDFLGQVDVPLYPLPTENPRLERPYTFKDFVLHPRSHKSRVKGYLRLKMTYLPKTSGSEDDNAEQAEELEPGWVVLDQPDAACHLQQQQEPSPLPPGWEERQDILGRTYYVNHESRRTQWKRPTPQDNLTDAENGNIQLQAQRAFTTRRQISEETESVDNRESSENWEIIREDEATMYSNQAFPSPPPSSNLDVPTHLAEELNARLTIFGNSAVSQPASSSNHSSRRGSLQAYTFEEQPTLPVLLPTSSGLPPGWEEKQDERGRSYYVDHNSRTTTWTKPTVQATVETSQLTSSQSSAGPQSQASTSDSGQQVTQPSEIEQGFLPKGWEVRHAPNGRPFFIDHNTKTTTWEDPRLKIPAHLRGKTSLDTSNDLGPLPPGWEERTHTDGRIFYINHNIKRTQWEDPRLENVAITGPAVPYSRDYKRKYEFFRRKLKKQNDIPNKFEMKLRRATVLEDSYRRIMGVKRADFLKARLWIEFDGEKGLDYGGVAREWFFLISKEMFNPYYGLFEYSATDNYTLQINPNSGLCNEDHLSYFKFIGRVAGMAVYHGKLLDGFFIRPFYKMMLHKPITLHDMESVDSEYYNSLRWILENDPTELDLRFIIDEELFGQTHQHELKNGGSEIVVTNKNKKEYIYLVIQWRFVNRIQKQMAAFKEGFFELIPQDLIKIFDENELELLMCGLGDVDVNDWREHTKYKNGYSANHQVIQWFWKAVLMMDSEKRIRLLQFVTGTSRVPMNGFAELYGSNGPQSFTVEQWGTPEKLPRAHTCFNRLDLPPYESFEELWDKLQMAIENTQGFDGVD

Molecular target: HA-NEDD4 (neuronal precursor cell-expressed, developmentally down-regulated gene 4, E3 ubiquitin ligase) (UniProt P46934)
Experiment: co-IP; HEK293 cells co-expressing RER1 and NEDD4; NEDD4 immunoprecipitated, RER1 detected by blot; negative control with nonreactive serum; 1% CHAPS, 50 mM Tris pH 7.4, 150 mM NaCl, 5 mM EDTA, 4°C overnight, Protein A agarose

B1: Retention in endoplasmic reticulum 1 (RER1), human wild type (protein, UniProt O15258 1-196)
chain: MSEGDSVGESVHGKPSVVYRFFTRLGQIYQSWLDKSTPYTAVRWVVTLGLSFVYMIRVYLLQGWYIVTYALGIYHLNLFIAFLSPKVDPSLMEDSDDGPSLPTKQNEEFRPFIRRLPEFKFWHAATKGILVAMVCTFFDAFNVPVFWPILVMYFIMLFCITMKRQIKHMIKYRYIPFTHGKRRYRGKEDAGKAFAS
  binding: binds
